Measurements as given in patent publication US20220372138A1.
No constants are given. Whether binding was seen depends on the method and setting. Some results given as binding are weak or reduced against the parent protein; the word gives no strength. One block for each binder: values may come before it.

Columns and labels:
[1] = molecular target: human IGSF11 (VSIG3) expressed on cells (human) (UniProt Q5DX21); assay: FACS MFI<100
Streptavidin = Streptavidin (UniProt P22629); assay: scFv ELISA
[2] = molecular target: human IGSF11 (VSIG3) expressed on cells (human) (UniProt Q5DX21); assay: FACS 35-50% cells
[3] = molecular target: human IGSF11 (VSIG3) expressed on cells (human) (UniProt Q5DX21); assay: FACS <25% cells
IGSF11-hFc (human) [4] = molecular target: T1, IGSF11-hFc (human) (UniProt Q5DX21); assay: IgG1 ELISA EC50 >10 nM
T1 sequence: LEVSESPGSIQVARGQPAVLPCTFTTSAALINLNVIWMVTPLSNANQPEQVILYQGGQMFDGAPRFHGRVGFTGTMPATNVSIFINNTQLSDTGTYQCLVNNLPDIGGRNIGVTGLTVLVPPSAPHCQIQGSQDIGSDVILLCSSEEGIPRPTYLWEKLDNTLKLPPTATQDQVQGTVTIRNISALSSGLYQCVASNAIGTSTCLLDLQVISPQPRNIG

[5] = molecular target: human IGSF11 (VSIG3) expressed on cells (human) (UniProt Q5DX21); assay: FACS MFI>150
[6] = molecular target: human IGSF11 (VSIG3) expressed on cells (human) (UniProt Q5DX21); assay: FACS >50% cells
IGSF11-hFc (human) [7] = molecular target: T1, IGSF11-hFc (human); assay: IgG1 ELISA EC50 <1 nM
[8] = molecular target: human IGSF11 (VSIG3) expressed on cells (human) (UniProt Q5DX21); assay: FACS staining of COLO-741 cells (endogenous IGSF11)
[9] = molecular target: human IGSF11 (VSIG3) expressed on cells (human) (UniProt Q5DX21); assay: FACS COLO-741
[10] = molecular target: human IGSF11 (VSIG3) expressed on cells (human) (UniProt Q5DX21); assay: FACS dot plots, IgG1-format antibody, cells treated with IGSF11 siRNA (KD) or scrambled control (SC)

B1: A-034 (scFv format) (scFv, V domains shown)
VH: QMQLVQSGGGLVKPGGSLRLSCAASGFTFSSYTMNWVRQAPGKGLEWVSSISSIGTYIYYADSVKGRFTISRDNAKNSLYLQMNSLRAEDTAVYYCARVLLSGSYYGYFDSWGQGTLVTVSS
VL: QSVLTQPPSVSGAPGQRVTISCTGSSSNIGAGYDVHWYQQLPGTAPKLFIYGNSNRPSGVPDRFSGSKSGTSASLAITGLQAEDEADYYCQSYDSSLSGYVFGTGTKVTVL
- binding [1]: binds
- binding (Streptavidin): no binding (tested: <0.025 or <0.05 RFU)
- binding [2]: binds

B3: A-035 (IgG1 format) (antibody, V domains shown)
VH: QVQLVQSGAEVKKPGASVKVSCKASGYTFTGYYMHWVRQAPGQGLEWMGWINPNSGNTGYAQKFQGRVTMTRNTSISTAYMELSSLRSEDTAVYYCARGRLERGYWYFDLWGRGTLVTVSS
VL: NFMLTQPHSVSESPGRTVTISCTRSSGSITSNYVQWYQQRPGSAPTILIYEDKERPSEVPDRFSGSIDISSNSASLTISGLKTEDEADYYCQSYGGTSQGVLFGGGTKVTVL
- binding (IGSF11-hFc (human) [4]): binds

B4: A-021 (scFv format) (scFv, V domains shown)
VH: QVQLVQSGAEVKKPGASVKVSCKASGYTFTSYGISWVRQAPGQGLEWMGWISAYNGNTNYAQKLQGRVTMTTDTSTSTAYMELRSLRSDDTAVYYCARVPAWSGQFDYWGQGTLVTVSS
VL: QSALTQPASVSGSPGQSITISCTGTSSDVGGYNYVSWYQQHPGKAPKLMIYEVTNRPSGVSDRFSGSKSANTASLTISELQAEDEAVYYCNSYTSGPTYVLFGGGTQLTVL
- binding [5]: binds
- binding (Streptavidin): no binding (tested: <0.025 or <0.05 RFU)
- binding [6]: binds

B5: A-001 (scFv format) (scFv, V domains shown)
VH: EVQLVESGGGLVKPGGSLRLSCAASGFTFSSYSMNWVRQAPGKGLEWVSSISSSSSYIYYADSVKGRFTISRDNAKNSLYLQMNSLRAEDTAVYYCVRSIIVQALGITSVFDIWGQGTMVTVSS
VL: AIRLTQSPSSLSASVGDRVTISCRASQIISNHLNWYQQKPGKAPKLLIYAASRLQTGVPSRFSGSGSETDYTLTISSLQPEDFATYYCQQSYSNPRTFGHGTKVEIK
- binding (Streptavidin): no binding (tested: <0.025 or <0.05 RFU)
- binding [6]: binds

B7: A-012 (scFv format) (scFv, V domains shown)
VH: EVQLLESGGGLIQPGGSLRLSCAVSGFTVSSNYMSWVRQAPGKGLEWVSVIYSGGSTYYADSVKGRFTISRDNSKNTLYLQMNSLRAEDTAVYYCARGNPYYYGDLQVNFDYWGQGTLVTVSS
VL: QAVVTQEPSLTVSPGGTVTLTCASSTGAVTSGYYPNWFQQKPGQAPRALIYSTSNKHSWTPARFSGSLLGGKAALTLSGVQPEDEAEYYCLLYYGGAWVFGGGTKLTVL
- binding [3]: binds
- binding (Streptavidin): no binding (tested: <0.025 or <0.05 RFU)

B9: A-002 (scFv format) (scFv, V domains shown)
VH: EVQLVESGGGLIQPGGSLRLSCAASGFTVSSNYMSWVRQAPGKGLEWVSVIYSGGSTYYADSVKGRFTISRDNSKNTLYLQMNSLRAEDTAVYYCARGNPYYYGDLQVNFDYWGQGTLVTVSS
VL: QAVVTQEPSLTVSPGGTVTPTCGSSTGAVTSGNLPNWFQQKPGQAPRALIYSTSNKHSWTPARISGSLLGGKAALTLSGVQPEDEAEYYCLLYYGGAWVFGGGTKLTVL
- binding [3]: binds
- binding (Streptavidin): no binding (tested: <0.025 or <0.05 RFU)

B10: A-013 (scFv format) (scFv, V domains shown)
VH: EVQLVESGGGLIQPGGSLRLSCAASGFTVSSNYMSWVRQAPGKGLEWVSVIYSGGSTYYADSVKGRFTISRDNSKNTLYLQMNSLRAEDTAVYYCARGNPYYYGDLQVNFDYWGQGTLVTVSS
VL: QAVVTQEPSLTVSPGGTVTLTCASSTGAVTSAYYPNWFQQKPGQAPRALIYSTSNKHSWTPARFSGSLLGGKAALTLSGVQPEDEADYYCLLYYGGAWVFGGGTKLTVL
- binding [3]: binds
- binding (Streptavidin): no binding (tested: <0.025 or <0.05 RFU)

B14: A-004 (IgG1 format) (antibody, V domains shown)
VH: EVQLVESGGGLVKPGGSLRLSCAASGFTFSSYSMNWVRQAPGKGLEWVSSISSSSSYIYYADSVKGRFTISRDNAKNSLYLQMNSLRAEDTAVYYCARGQLLWFGESALIDAFDIWGQGTMVTVSS
VL: EIVLTQSPSSLSASVGDRVTITCRASQSISSYLNWYQLKPGKAPKLLIYAASILQSGVPSRFSGSGSGTDFTLTISSLQPEDFAAYYCQQSYSTPRTFGQGTKLEIK
- binding [10]: binds

The next lines start with the values.

- binding [3]: binds
- binding [1]: binds
- binding (Streptavidin): no binding (tested: <0.025 or <0.05 RFU)
B2: A-035 (scFv format) (scFv, V domains shown)
VH: QVQLVQSGAEVKKPGASVKVSCKASGYTFTGYYMHWVRQAPGQGLEWMGWINPNSGNTGYAQKFQGRVTMTRNTSISTAYMELSSLRSEDTAVYYCARGRLERGYWYFDLWGRGTLVTVSS
VL: NFMLTQPHSVSESPGRTVTISCTRSSGSITSNYVQWYQQRPGSAPTILIYEDKERPSEVPDRFSGSIDISSNSASLTISGLKTEDEADYYCQSYGGTSQGVLFGGGTKVTVL

- binding (IGSF11-hFc (human) [7]): binds
B6: A-013 (IgG1 format) (antibody, V domains shown)
VH: EVQLVESGGGLIQPGGSLRLSCAASGFTVSSNYMSWVRQAPGKGLEWVSVIYSGGSTYYADSVKGRFTISRDNSKNTLYLQMNSLRAEDTAVYYCARGNPYYYGDLQVNFDYWGQGTLVTVSS
VL: QAVVTQEPSLTVSPGGTVTLTCASSTGAVTSAYYPNWFQQKPGQAPRALIYSTSNKHSWTPARFSGSLLGGKAALTLSGVQPEDEADYYCLLYYGGAWVFGGGTKLTVL

- binding (IGSF11-hFc (human) [7]): binds
B8: A-012 (IgG1 format) (antibody, V domains shown)
VH: EVQLLESGGGLIQPGGSLRLSCAVSGFTVSSNYMSWVRQAPGKGLEWVSVIYSGGSTYYADSVKGRFTISRDNSKNTLYLQMNSLRAEDTAVYYCARGNPYYYGDLQVNFDYWGQGTLVTVSS
VL: QAVVTQEPSLTVSPGGTVTLTCASSTGAVTSGYYPNWFQQKPGQAPRALIYSTSNKHSWTPARFSGSLLGGKAALTLSGVQPEDEAEYYCLLYYGGAWVFGGGTKLTVL

- binding [8]: binds
- binding [9]: binds
B11: A-024 (IgG1 format) (antibody, V domains shown)
VH: QMQLVQSGAEVKKPGSSVKVSCKASGGTFSSYAISWVRQAPGQGLEWMGWISAYNGNTNYAQKLQGRVTMTTDTSTSTAYMELRSLRSDDTAVYYCASLGSYGYTGAFDIWGQGTMATVSS
VL: QSALTQPASVSGSPGQSITISCTGTSSDVGGYNYVSWYQQHPGKAPKLMIYEVSNRPSGVSNRFSGSKSGNTASLTISGLQAEDEADYYCSSYTSSSTLVVFGGGTKLTVL

- binding [5]: binds
- binding (Streptavidin): no binding (tested: <0.025 or <0.05 RFU)
- binding [6]: binds
B12: A-024 (scFv format) (scFv, V domains shown)
VH: QMQLVQSGAEVKKPGSSVKVSCKASGGTFSSYAISWVRQAPGQGLEWMGWISAYNGNTNYAQKLQGRVTMTTDTSTSTAYMELRSLRSDDTAVYYCASLGSYGYTGAFDIWGQGTMATVSS
VL: QSALTQPASVSGSPGQSITISCTGTSSDVGGYNYVSWYQQHPGKAPKLMIYEVSNRPSGVSNRFSGSKSGNTASLTISGLQAEDEADYYCSSYTSSSTLVVFGGGTKLTVL

- binding (Streptavidin): no binding (tested: <0.025 or <0.05 RFU)
- binding [2]: binds
B13: A-014 (scFv format) (scFv, V domains shown)
VH: QVQLVQSGAEVKKPGASVKVSCKASGYTFNDYYIHWVRQAPGQGLEWMGWFNPSTGGANYAQKFQGRVTMTRDTSISTAYLEVSSLRSDDTAVYYCARGNSPDLDYWGQGTLVTVSS
VL: DIQMTQSPDSLTVSLGERATINCKSSQSLLHSSNNKNYLAWYQQRPGQPPKLLIYWASTRQSGVPDRFSGSGSGTDFTLTINSLQADDMAVYYCQQYYTTTPNTFGQGTKLEIK

- binding (Streptavidin): no binding (tested: <0.025 or <0.05 RFU)
- binding [6]: binds
B15: A-004 (scFv format) (scFv, V domains shown)
VH: EVQLVESGGGLVKPGGSLRLSCAASGFTFSSYSMNWVRQAPGKGLEWVSSISSSSSYIYYADSVKGRFTISRDNAKNSLYLQMNSLRAEDTAVYYCARGQLLWFGESALIDAFDIWGQGTMVTVSS
VL: EIVLTQSPSSLSASVGDRVTITCRASQSISSYLNWYQLKPGKAPKLLIYAASILQSGVPSRFSGSGSGTDFTLTISSLQPEDFAAYYCQQSYSTPRTFGQGTKLEIK

- binding (Streptavidin): no binding (tested: <0.025 or <0.05 RFU)
- binding [6]: binds
B16: A-016 (scFv format) (scFv, V domains shown)
VH: QVQLQESGAEVKKPGASVKVSCKASGYTFTGYYMHWVRQAPGQGLEWMGGIIPIFGTANYAQKFQGRVTITADESTSTAYMELSSLRSEDTAVYYCAGAGMELTRSGAYYYYGMDVWGQGTTVTVSS
VL: QSALTQPASVSGSPGQSITISCTGTSSDIGGYTFVSWYQQHPGKAPKVMIHDVNNRPSGISNRFSGSKSGNTASLTISGLQAEDEADYYCSSVTSTNTYVFGTGTKVTVL

- binding (IGSF11-hFc (human) [7]): binds
B17: A-022 (IgG1 format) (antibody, V domains shown)
VH: EVQLLESGPGLVKPSQTLSLTCTVSGGSISSGGYYWSWIRQHPGKGLEWIGYIYYSGSTYYNPSLKSRVTISVDTSKNQFSLKLSSVTAADTAVYYCARASRSTDYYFDYWGQGTLVTVSS
VL: QPGLTQPPSMSYGLGQTATLTCTGNRNNIGDQGAAWLQQHQGHPPKLLSYRNNNGPSGISERLSASRSGNTASLTISGLQPEDEADYYCSAWDSSLRAWVFGGGTKLTVL
